Measured values from US4031235A, “Insecticidal substituted acetate compounds” (Sumitomo Chemical Company, Limited, priority 1972, dated 1977).
For at least one compound, name, drawing or mass did not settle the structure.

Tested on: spider mites (Tetranychus telarius)
Test: Repellent activity on spider mites (Experimental Example 3)
Type: in vivo
Settings: 2000-fold dilute solution of emulsifiable concentrate, 10 ml/pot; 2 days

SMILES: CCC(C(=O)OCN1C(=O)C2=C(CCCC2)C1=O)c1ccccc1 (stereo not drawn) [compound 4, 3',4',5',6'-Tetrahydrophthalimidomethyl-α-ethyl-phenylacetate]
- Repellency: ++ (greater than 4 : 1)
